Reference: article PMC11729909
No constants are given. Whether binding was seen depends on the method and setting. In cells and extracts the contact can be indirect. Some binding calls cover weakened binding; strength is not graded here. For some assays here: Tags and fused reporters may be left off the sequences shown.

Amino acid sequences for entries named in this document (tags omitted).
UniProt P27694: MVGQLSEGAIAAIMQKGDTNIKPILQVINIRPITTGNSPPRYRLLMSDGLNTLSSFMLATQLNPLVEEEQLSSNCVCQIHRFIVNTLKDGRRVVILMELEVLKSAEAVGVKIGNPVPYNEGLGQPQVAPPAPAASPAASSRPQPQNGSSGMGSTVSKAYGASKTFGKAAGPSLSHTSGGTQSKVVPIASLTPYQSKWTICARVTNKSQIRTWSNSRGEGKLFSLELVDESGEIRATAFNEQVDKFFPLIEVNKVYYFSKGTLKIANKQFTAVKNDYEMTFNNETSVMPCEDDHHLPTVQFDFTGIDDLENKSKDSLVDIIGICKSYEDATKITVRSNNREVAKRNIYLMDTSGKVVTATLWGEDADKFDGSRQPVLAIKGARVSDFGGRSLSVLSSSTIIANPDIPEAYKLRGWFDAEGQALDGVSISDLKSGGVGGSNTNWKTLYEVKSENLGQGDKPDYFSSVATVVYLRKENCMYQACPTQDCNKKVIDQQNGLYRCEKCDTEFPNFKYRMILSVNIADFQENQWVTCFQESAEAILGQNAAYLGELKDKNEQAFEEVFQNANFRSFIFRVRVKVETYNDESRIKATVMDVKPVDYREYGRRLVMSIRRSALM
UniProt Q13535: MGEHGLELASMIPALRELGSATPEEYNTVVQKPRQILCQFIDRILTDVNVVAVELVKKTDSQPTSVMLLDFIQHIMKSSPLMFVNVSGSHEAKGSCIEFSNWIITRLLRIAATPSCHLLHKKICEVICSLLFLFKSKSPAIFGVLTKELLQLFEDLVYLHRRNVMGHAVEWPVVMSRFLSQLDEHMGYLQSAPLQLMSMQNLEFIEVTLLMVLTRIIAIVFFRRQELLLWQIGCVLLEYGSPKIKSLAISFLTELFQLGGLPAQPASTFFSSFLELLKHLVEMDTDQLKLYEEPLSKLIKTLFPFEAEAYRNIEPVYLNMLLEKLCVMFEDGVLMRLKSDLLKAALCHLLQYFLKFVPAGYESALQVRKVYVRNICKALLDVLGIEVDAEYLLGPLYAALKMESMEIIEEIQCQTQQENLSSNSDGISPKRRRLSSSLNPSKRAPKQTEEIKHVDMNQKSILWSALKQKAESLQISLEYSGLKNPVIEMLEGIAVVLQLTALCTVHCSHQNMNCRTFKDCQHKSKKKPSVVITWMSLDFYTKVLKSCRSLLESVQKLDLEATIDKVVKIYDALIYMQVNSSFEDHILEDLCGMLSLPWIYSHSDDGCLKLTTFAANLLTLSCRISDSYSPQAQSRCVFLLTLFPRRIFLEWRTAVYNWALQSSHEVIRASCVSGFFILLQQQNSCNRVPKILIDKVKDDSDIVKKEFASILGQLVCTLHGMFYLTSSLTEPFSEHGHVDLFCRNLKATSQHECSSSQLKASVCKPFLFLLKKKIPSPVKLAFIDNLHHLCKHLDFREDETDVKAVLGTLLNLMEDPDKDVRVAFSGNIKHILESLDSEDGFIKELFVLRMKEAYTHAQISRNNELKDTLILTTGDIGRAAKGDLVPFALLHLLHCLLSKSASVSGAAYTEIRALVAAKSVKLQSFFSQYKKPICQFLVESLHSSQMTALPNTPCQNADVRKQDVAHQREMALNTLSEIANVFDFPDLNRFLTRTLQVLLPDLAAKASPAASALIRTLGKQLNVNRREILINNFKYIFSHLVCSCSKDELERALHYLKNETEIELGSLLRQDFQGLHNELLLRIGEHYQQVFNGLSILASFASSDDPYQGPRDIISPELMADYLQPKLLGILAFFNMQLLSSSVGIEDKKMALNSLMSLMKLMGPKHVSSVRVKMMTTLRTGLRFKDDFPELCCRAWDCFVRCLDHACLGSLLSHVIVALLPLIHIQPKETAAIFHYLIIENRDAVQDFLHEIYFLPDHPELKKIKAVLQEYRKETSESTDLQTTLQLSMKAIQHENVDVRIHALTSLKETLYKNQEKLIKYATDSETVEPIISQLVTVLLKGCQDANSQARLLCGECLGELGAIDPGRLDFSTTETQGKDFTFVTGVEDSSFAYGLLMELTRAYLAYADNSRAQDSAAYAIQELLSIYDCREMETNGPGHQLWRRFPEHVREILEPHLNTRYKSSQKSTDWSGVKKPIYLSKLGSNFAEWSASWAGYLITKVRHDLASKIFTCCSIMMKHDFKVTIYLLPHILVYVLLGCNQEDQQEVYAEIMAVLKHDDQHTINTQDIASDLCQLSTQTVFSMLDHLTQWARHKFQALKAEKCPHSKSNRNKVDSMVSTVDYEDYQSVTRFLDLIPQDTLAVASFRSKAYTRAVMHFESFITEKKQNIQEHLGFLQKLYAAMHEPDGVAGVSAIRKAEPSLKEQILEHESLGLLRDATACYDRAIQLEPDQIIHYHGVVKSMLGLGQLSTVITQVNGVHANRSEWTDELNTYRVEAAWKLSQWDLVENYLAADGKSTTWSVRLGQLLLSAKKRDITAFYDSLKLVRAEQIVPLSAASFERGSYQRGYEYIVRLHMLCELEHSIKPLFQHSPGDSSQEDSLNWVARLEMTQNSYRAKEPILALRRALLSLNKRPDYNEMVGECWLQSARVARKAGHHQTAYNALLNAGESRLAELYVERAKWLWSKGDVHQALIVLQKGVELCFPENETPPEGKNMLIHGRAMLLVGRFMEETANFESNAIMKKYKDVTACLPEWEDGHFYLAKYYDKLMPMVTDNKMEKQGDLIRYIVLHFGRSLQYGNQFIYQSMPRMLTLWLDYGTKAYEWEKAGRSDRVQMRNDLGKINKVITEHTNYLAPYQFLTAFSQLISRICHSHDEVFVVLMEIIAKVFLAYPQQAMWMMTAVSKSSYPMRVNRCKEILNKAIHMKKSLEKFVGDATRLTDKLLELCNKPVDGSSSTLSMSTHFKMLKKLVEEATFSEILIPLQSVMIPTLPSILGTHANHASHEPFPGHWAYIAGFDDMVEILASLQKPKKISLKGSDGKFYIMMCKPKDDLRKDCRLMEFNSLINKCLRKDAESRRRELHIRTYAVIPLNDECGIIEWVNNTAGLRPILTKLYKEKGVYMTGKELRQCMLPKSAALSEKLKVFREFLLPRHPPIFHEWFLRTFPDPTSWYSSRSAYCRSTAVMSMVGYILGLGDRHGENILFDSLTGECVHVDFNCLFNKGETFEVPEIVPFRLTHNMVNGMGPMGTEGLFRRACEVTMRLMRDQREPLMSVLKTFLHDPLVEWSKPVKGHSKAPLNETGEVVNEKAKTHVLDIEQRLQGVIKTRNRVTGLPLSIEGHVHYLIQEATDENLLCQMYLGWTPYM

Columns and labels:
SFB-tagged OGT (human) = biological target: T1, SFB-tagged OGT (human) (UniProt O15294); assay: co-IP; HEK293T transfected with the indicated plasmids, lysed in NETN buffer, Anti-FLAG Affinity Gel 4 h at 4 °C, immunoblot; in some panels 2 mM HU, Thiamet-G, OGT siRNA, ATR inhibitors (VE-822, NU6027) or CHK1 inhibitors (Rabusertib, UCN-01)
T1 sequence: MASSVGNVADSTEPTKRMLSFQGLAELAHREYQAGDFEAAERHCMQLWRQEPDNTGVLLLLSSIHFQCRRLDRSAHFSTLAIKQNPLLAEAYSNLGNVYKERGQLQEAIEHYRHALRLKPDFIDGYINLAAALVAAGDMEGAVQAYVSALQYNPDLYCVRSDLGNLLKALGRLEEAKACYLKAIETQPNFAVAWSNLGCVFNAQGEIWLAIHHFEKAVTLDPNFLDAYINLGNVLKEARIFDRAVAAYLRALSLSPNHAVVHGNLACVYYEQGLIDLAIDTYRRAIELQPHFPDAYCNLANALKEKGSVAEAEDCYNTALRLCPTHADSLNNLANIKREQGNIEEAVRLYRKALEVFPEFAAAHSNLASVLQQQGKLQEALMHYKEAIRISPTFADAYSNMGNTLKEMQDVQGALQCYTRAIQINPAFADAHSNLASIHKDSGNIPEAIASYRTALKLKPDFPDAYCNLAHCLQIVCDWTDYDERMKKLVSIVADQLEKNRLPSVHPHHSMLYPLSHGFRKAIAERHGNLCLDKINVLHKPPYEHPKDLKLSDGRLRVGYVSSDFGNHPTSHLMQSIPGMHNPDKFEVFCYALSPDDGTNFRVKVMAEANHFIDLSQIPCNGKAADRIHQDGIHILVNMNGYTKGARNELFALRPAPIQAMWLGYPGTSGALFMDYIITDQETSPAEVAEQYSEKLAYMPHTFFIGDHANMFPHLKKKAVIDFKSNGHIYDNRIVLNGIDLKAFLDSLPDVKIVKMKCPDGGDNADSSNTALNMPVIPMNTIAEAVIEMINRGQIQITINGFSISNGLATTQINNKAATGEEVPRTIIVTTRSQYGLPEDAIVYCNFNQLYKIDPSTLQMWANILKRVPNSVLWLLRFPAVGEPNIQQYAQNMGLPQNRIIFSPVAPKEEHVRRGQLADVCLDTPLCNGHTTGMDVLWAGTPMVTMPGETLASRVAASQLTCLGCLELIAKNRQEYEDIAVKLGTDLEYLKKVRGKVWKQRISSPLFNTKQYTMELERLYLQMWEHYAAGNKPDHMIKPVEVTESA

[1] = biological target: T2, ATRIP (endogenous) (human (endogenous in HEK293T)) (UniProt Q8WXE1); assay: co-IP; endogenous immunoprecipitation from HEK293T lysate (NETN buffer: 100 mM NaCl, 1 mM EDTA, 20 mM Tris-HCl pH 8.0, 0.5% NP-40), antibody 4 h at 4 °C, protein-A beads 1 h; cells untreated or 2 mM HU for 1 h
T2 sequence: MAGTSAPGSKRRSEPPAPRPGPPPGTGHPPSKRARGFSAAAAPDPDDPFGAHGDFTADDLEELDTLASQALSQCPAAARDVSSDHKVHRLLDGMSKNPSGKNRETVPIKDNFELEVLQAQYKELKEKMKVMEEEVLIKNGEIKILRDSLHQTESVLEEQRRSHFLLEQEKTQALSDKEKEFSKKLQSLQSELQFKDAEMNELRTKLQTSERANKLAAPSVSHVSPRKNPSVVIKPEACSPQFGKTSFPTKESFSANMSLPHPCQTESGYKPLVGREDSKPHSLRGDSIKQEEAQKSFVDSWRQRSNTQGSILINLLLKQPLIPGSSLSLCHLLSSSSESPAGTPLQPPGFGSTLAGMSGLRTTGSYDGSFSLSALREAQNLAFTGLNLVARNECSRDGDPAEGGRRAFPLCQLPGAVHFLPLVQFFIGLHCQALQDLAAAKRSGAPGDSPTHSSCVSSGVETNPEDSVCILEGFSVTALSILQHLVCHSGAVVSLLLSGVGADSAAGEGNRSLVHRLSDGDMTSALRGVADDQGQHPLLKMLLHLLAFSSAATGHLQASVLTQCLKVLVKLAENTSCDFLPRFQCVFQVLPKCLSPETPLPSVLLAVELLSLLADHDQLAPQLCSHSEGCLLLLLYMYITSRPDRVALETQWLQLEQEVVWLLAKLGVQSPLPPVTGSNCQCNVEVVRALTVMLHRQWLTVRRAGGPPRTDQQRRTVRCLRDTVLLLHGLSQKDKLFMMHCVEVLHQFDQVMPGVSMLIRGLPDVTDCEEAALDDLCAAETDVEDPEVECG

[2] = biological target: RPA70 (endogenous) (human (endogenous in HEK293T)) (UniProt P27694); assay: as above
[3] = biological target: ATR (endogenous) (human (endogenous in HEK293T and H1975)) (UniProt Q13535); assay: as above
[4] = biological target: T3, CHK1 (endogenous) (human (endogenous in HEK293T)) (UniProt O14757); assay: as above
T3 sequence: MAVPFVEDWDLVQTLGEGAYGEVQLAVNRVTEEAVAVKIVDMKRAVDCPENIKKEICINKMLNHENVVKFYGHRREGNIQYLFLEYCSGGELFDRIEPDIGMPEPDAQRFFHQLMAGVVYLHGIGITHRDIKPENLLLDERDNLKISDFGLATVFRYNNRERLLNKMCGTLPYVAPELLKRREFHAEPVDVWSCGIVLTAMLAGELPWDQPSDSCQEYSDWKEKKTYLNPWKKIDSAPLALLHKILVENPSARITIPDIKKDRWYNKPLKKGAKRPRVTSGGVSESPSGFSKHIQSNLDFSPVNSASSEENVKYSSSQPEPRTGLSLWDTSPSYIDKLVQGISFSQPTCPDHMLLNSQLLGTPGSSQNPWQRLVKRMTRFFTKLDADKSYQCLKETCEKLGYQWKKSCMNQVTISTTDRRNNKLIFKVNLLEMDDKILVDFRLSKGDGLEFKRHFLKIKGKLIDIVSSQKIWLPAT

Measured: binding

B1: FOXP1 (endogenous) (protein, UniProt Q9H334 1-677)
chain: MMQESGTETKSNGSAIQNGSGGSNHLLECGGLREGRSNGETPAVDIGAADLAHAQQQQQQALQVARQLLLQQQQQQQVSGLKSPKRNDKQPALQVPVSVAMMTPQVITPQQMQQILQQQVLSPQQLQVLLQQQQALMLQQQQLQEFYKKQQEQLQLQLLQQQHAGKQPKEQQQVATQQLAFQQQLLQMQQLQQQHLLSLQRQGLLTIQPGQPALPLQPLAQGMIPTELQQLWKEVTSAHTAEETTGNNHSSLDLTTTCVSSSAPSKTSLIMNPHASTNGQLSVHTPKRESLSHEEHPHSHPLYGHGVCKWPGCEAVCEDFQSFLKHLNSEHALDDRSTAQCRVQMQVVQQLELQLAKDKERLQAMMTHLHVKSTEPKAAPQPLNLVSSVTLSKSASEASPQSLPHTPTTPTAPLTPVTQGPSVITTTSMHTVGPIRRRYSDKYNVPISSADIAQNQEFYKNAEVRPPFTYASLIRQAILESPEKQLTLNEIYNWFTRMFAYFRRNAATWKNAVRHNLSLHKCFVRVENVKGAVWTVDEVEFQKRRPQKISGNPSLIKNMQSSHAYCTPLNAALQASMAENSIPLYTTASMGNPTLGNLASAIREELNGAMEHTNSNESDSSPGRSPMQAVHPVHVKEEPLDPEEAEGPLSLVTTANHSPDFDHDRDYEDEPVNEDME
binds: all assays above
